Experimental findings from paper PMC4433056 are described below.

Sequences of proteins named here, by UniProt entry; tags and fusion partners are left off. A change or cut given only in a name is not applied to a line headed by its entry.
UniProt Q9QYM5: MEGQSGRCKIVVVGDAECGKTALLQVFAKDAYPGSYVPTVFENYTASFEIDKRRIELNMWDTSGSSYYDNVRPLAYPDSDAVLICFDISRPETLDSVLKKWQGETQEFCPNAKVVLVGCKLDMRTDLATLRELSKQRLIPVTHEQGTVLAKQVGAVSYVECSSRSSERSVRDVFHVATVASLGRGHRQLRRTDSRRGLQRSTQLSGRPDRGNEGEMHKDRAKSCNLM

The test addresses Rnd2 bait construct lacking the C-terminal membrane-binding (CAAX) motif (UniProt Q9QYM5). The test can be described thus: two-hybrid; Rnd2 bait lacking the CAAX motif against prey clones of an embryonic mouse (E15.5) cortex library; complementation tests after prey plasmid recovery; growth on selection medium lacking histidine and adenine.

No constants are given. Whether binding was seen depends on the method and setting. A result given as binding can be weak or reduced; the word gives no strength.

B1: Bacurd2 C-terminal aa242-316 fragment, two-hybrid prey (domain or fragment, UniProt O70479 242-316)
chain: PEARIYEETLNVLLYETPRVPDNSLLEATSRSRSQASPSEDEDTFELRDRVRRIHVKRYSTYDDRQLGHQSTHRD
Regarding B1, the binding entry was “binds”.

B2: full-length Bacurd2 (BTB-domain containing adaptor for Cul3-mediated RhoA degradation 2), two-hybrid prey (protein, UniProt O70479 1-316)
chain: MSGDTCLCPASGAKPKISGFKGGGLGNKYVQLNVGGSLYYTTVRALTRHDTMLKAMFSGRMEVLTDKEGWILIDRCGKHFGTILNYLRDDTITLPQSRQEIQELMAEAKYYLIQGLVSTCQTALQDKKDSYQPVCNIPIITSLREEDRLIESSTKPVVKLLYNRSNNKYSYTSNSDDHLLKNIELFDKLSLRFNGRVLFIKDVIGDEICCWSFYGQGRKLAEVCCTSIVYATEKKQTKVEFPEARIYEETLNVLLYETPRVPDNSLLEATSRSRSQASPSEDEDTFELRDRVRRIHVKRYSTYDDRQLGHQSTHRD
As for B2, the binding entry is recorded as “binds”.
